These results are taken from paper PMC7056711.

The chains behind the UniProt entries cited, without tags or fusion partners.
UniProt Q9Y5K6: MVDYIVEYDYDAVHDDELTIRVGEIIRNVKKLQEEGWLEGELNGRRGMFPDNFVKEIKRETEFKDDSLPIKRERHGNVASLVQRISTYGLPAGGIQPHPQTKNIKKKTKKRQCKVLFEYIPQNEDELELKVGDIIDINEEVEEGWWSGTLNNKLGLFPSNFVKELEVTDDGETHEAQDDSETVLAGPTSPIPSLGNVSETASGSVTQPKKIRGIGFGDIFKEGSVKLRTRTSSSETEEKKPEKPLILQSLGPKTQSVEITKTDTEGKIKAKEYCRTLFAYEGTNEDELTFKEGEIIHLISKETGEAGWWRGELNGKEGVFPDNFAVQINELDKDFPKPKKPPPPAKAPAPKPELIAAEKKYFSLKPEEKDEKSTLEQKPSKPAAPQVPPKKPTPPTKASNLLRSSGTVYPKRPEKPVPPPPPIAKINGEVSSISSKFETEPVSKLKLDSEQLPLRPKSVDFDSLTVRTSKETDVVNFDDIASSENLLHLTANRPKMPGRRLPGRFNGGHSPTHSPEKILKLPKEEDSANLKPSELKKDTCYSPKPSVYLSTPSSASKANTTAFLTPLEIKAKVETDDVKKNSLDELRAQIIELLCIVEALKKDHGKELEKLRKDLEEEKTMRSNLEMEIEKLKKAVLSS
UniProt Q01968: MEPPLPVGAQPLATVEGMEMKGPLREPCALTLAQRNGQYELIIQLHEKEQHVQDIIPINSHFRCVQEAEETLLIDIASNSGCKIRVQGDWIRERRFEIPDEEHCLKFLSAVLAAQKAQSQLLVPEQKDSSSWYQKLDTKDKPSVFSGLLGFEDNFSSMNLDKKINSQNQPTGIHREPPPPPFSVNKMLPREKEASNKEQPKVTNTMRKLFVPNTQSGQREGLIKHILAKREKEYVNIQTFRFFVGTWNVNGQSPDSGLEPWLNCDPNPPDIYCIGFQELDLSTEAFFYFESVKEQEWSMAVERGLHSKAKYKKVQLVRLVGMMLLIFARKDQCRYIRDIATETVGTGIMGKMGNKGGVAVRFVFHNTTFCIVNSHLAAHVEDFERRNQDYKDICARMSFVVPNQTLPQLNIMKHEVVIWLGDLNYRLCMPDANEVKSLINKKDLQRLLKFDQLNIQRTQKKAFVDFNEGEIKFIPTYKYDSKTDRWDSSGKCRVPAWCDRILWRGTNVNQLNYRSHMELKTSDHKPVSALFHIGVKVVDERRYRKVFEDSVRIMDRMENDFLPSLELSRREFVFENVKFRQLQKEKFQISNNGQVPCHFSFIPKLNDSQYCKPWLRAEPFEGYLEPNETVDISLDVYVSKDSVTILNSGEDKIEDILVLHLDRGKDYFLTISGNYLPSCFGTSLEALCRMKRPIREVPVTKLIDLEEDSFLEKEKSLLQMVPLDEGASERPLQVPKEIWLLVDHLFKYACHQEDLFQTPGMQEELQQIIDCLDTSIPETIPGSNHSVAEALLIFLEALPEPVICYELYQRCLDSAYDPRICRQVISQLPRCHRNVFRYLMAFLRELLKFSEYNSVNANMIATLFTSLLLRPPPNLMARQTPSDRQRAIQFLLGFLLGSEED

Results are given in words; binding and its absence hold for the method and conditions named. Binding seen in cells or lysates may run through a third protein. Some entries that bind do so weakly or less than the wild type. For some assays here: Sequences can lack the tags named with a protein.

Assay [1] addresses CD2AP (human (endogenous in conditionally immortalised human podocytes)) (UniProt Q9Y5K6). Description: co-IP; anti-OCRL or anti-CD2AP antibody on Protein-G Dynabeads, total cell lysate of cultured human podocytes (HMNT buffer: 20 mM HEPES pH 7.4, 5 mM MgCl2, 0.1 M NaCl, 0.5% Triton X-100), 4 °C for 4 h, immunoblot. A general note: In western blotting, separated proteins are transferred to a membrane and probed.

Assay [2] addresses T1, Glutathione S-transferase (GST)-tagged recombinant IPIP27A (UniProt Q8N4B1).
T1 sequence: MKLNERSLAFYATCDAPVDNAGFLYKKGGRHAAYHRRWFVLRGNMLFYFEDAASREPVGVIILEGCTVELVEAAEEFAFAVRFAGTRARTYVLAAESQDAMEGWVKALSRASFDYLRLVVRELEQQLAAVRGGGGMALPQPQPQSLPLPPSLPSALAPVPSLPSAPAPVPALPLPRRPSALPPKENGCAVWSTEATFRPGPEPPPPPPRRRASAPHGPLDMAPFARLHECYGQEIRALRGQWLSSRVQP
Description: pull-down; GST-IPIP27A coupled to glutathione-sepharose beads, incubated with fresh total cell lysate of podocytes at 4 °C for 3 h, immunoblot with anti-OCRL or anti-CD2AP; only the target purified.

Take OCRL (from UniProt Q01968 1-901): the binding entry in assay [1] and in assay [2] was “binds” throughout.
